Data taken from US20250353895A1, “METHOD FOR ANALYZING G-PROTEIN CONJUGATED RECEPTOR” (Kao Corporation, priority 2022, published 2025).

System: HEK293 cells
Assay: Measurement of receptor protein level on cell membrane (flow cytometry), receptor gene co-transfected with RTP1S
Type: cell-based, human
Settings: for Consensus Membrane expression level (%): consensus receptor on HEK293 cells; for Consensus Membrane expression level (%) / Original Membrane expression level (%): PE signal normalised, NC (no receptor) 0%, PC (FLAG-M2 acetylcholine receptor) 100%, average of three experiments; for change in membrane expression level by the consensus design method: consensus receptor compared with original receptor, HEK293 cells, average values of three experiments; for Original Membrane expression level (%): original receptor on HEK293 cells

| Molecule | Consensus Membrane expression level (%) | change in membrane expression level by the consensus design method | Original Membrane expression level (%) |
| --- | --- | --- | --- |
| consensus TAS2R16: consensus GPCR of human TAS2R16 (protein) MIPIQLTVFFMIIYVLESLTIIVQSSLIVAVLGREWVQVRRLSPVDMILISLGICRFCLQWASMLYNFCSYFNPNYVFWYLTITWEFTNILTFWLTSLLAVFYCVKVSSFTHPIFLWLRWRILRLVPWLLLGSLMISCVTIIPSAIGNYIQIQLITMEHLPRNSTVTERLENFHQYFFQAHKTVALVIPFLLFLASTILLMASLTQHLEQMQHHSTGHCNSSMKAHFTALRSLAVFLIFFTSYFLTILISIIGTLFDKRSWFWVWEAFIYAFVSIHSTSLMLSSPTLKRVLKGKC | 49.31 |  |  |
| consensus TAS2R46: consensus GPCR of human TAS2R46 (protein) MITFLPIIFSILIVVTFVIGNFANGFIALVNSIEWVKRQKISFADQILTALAVSRVGLLWVLLLHWYATEFNLAFYSIEVRITAYNVWAVTNHFSNWLATSLSIFYLLKIANFSNLIFLHLKRRVKSVILVILLGPLLFLVCHLFVINMNQIVQTKEYEGNMTWKIKLRSAMYLSNMTVTMLANFVPFTLTLISFLLLICSLCKHLKKMQLHGKGSQDPSTKVHIKALQTVTSFLLLCAIYFLSIIMSVWSFESLENKPVFMFCQAIAFSYPSTHPFILIWGNKKLKQTFLSVLWHVRYWVKGQKPSSS | 16.38 |  |  |
| consensus TAS2R38: consensus GPCR of human TAS2R38 (protein) MLTLTPIRTVSYEVKSTFLFLSVLEFAVGILTNAFIFLVNFWDVVRRQPLSNCDLVLLCLSITRLFLHGLLFLDAIQLTHFQKMKDPLSHSYQTIIMLWMIANQANLWLATCLSLLYCSKIVRFSHTFLLCLASWVSRKIPQMLLGAILFSCICTVLCLWDFFSRSHFTVTTVLFMNNNTELNLQIKKLNFFYSFLFCYLGSIPPFLLFLVSSGVLIVSLGRHMRTMKAYTRDSRDPSLEAHIKALKSLVSFLCFYVVSFCAALISVPLLILWHNKIGVMVCVGIMAACPSGHAAILISGNAKLRRAVMTILLWAQSSLKVRADHKADPRTPDLC | 14.21 |  |  |
| TAS2R42: original human bitterness receptor TAS2R42 (protein, listed as Homo sapiens) MATELDKIFLILAIAEFIISMLGNVFIGLVNCSEGIKNQKVFSADFILTCLAISTIGQLLVILFDSFLVGLASHLYTTYRLGKTVIMLWHMTNHLTTWLATCLSIFYFFKIAHFPHSLFLWLRWRMNGMIVMLLILSLFLLIFDSLVLEIFIDISLNIIDKSNLTLYLDESKTLYDKLSILKTLLSLTSFIPFSLFLTSLLFLFLSLVRHTRNLKLSSLGSRDSSTEAHRRAMKMVMSFLFLFIVHFFSLQVANWIFFMLWNNKCIKFVMLALNAFPSCHSFILILGNSKLQQTAVRLLWHLRNYTKTPNPLPL |  | increase | 1.66 |
| consensus TAS2R42: consensus GPCR of human TAS2R42 (protein) MATGLDKIFLILAIAEFIIGMLGNVFIGLVNCSEWVKNQKVSSADFILTCLAISRIGQLLVILFDSFLVGLAPHLYTTYRLGKTVIMLWHMTNHLTTWLATCLSIFYFLKIAHFSHSLFLWLRWRMNRVILMLLILSLFLLIFDSLLLEIFIDISLNYIIDKSNLTLYLDESKTLYDKLLILLSLTYFIPFSLSLTSLLLLFLSLVRHTRNLQLNSLGSRDSSTEAHKRAMKMVMSFLFLFIVHFFSLQLANWIFFMLWNNKCIKFVMLALNAFPSGHSFILILGNSKLRQTALRLLWHLRNYLKTPNPLPL | 2.95 |  |  |
| consensus VN1R5: consensus GPCR of human VN1R5 (protein) MLKLVIIENMAEIMLFSLDLLLFSTDILCFNFPSKMIKLPGFITIQIFFYPQASFGISANTILLLFHIFTFVFSHRSKSIDMIISHLSLIHILLLFTQAILVSLDFFGSQNTQDDLRCKVIVFLNKVMRGLSICTPCLLSVLQAIISPSIFSLAKLKHPSASHILGFFLFSWVLNMFIGVIFCCTLRLPPVKRGQSSVCHTALFLFAHELHPQETVFHTNDFEGCHLYRVHGPLKRLHGDYFIQTIRGYLSAFTQPACPRVSPVKRASQTILLLVSFVFIYWVDFTFSFSRGVTWINDSLLVWFQVIVANSYATISPLMLIYADNQIFKTLQMLWFKYLSPPKLMLKFNRQCGSTKK | 0.31 |  |  |
| consensus TAAR2: consensus GPCR of human TAAR2 (protein) MYSFMAGAIFITVFGNLAMIISISYFKQLHTPTNFLILSMAVTDFLLGFTIMPYSMIRSVENCWYFGLTFCKIHYSFDLMLSITSIFHLCSVAIDRFYAICYPLLYSTKMTIPVIKRLLLLCWSVPGAFAFGVVFSEAYADGIEGYDILVACSSSCPVMFNKLWGTTLFMAGFFTPGSVMVGIYGKIFAVSRKHARAINNLPENQNNQMRKDKKAAKTLGIVMGVFLLCWFPCFFTILLDPFLNFSTPVVLFDALTWFGYFNSTCNPLIYGFFYPWFRRALKYILLGKIFSSHFHNTNLFTQKETE | 0.25 |  |  |
| consensus TAS2R45: consensus GPCR of human TAS2R45 (protein) MITFLPIIFSILVVVTFVIGNFANGFIALVNSTEWVKRQKISFADQILTALAVSRIGLLWVLLLHWYSIVLNPAFYSVEVRITTYNVWAVTSHFSNWLATSLSIFYLLKIANFSNLIFLHLKRRVKSVILVMLLGPLLFLPCHLFVINMNQIVQTKEYEGNMTWKIKLRRTMFLSDTTVTMLANLVPFTLTLISFLLLICSLCKHLKKMQLHGKGSQDPNTKVHIKALQTVISFLLLCAIYFVFVTISVWSFQTLDNNPVFMFCQAITFSYPSAHPFILIWGNKKLKQTFLSVLWQVRYWVKGQKPSSP | 0.37 |  |  |
| consensus TAS2R8: consensus GPCR of human TAS2R8 (protein) MFSPEDNIFIIIITGEFIIGILGNGYIGLVNWIDWIKKKKISSIDYILTSLAISRICLICVMVLNGIIIVLYPDVYTNNKLQIVIFTFWTFANYLSMWFATCLNVFYFLKIANFSHPLFLWLKWRIDRVVHWILLGCLAISLLVSLIAAIVLSCDYRFHKIAKHKRNITEMFHVSKIQYFEPLTLFNLLAIVPFTVSLISFFLLIRSLWRHTKQMKLYVTGCRDPSTEAHVRAMKTMTSFLFLLFVYYISSLLMTFSYLMKEYKLAVMFGEIIAILYPSGHSLILIILNNKLRQASVRMLTCRKIACMM | 53.59 |  |  |
| TAS2R16: original human bitterness receptor TAS2R16 (protein, listed as Homo sapiens) MIPIQLTVFFMIIYVLESLTIIVQSSLIVAVLGREWLQVRRLMPVDMILISLGISRFCLQWASMLNNFCSYFNLNYVLCNLTITWEFFNILTFWLNSLLTVFYCIKVSSFTHHIFLWLRWRILRLFPWILLGSLMITCVTIIPSAIGNYIQIQLLTMEHLPRNSTVTDKLENFHQYQFQAHTVALVIPFILFLASTIFLMASLTKQIQHHSTGHCNPSMKARFTALRSLAVLFIVFTSYFLTILITIIGTLFDKRCWLWVWEAFVYAFILMHSTSLMLSSPTLKRILKGKC |  | increase | 36.00 |
| consensus TAAR1: consensus GPCR of human TAAR1 (protein) MPFCHNIINISCVKSSWSNDVRASLYSLMVLIILTTLVGNLIVIISISHFKQLHTPTNWLIHSMATVDFLLGCLVMPYSMVRSVEHCWYFGEVFCKIHTSTDIMLSSASIFHLSFISIDRYYAVCDPLRYKAKINILVICVMIFISWSVPAVFAFGMIFLELNFKGAEEIYYKHVHCRGGCSVFFSKTSGVLAFMTSFYIPGSIMLCVYYRIYLIAKEQARSISDANQKLQIGLEMKNGISQSKERKAAKTLGIVMGVFLICWCPFFICTVMDPFLHYIIPPTLNDALIWFGYLNSTFNPMVYAFFYPWFRRALKMILFGKIFQKDSSRCKLFLE | 90.97 |  |  |
| TAS2R38: original human bitterness receptor TAS2R38 (protein, listed as Homo sapiens) MLTLTRIRTVSYEVRSTFLFISVLEFAVGFLTNAFVFLVNFWDVVKRQALSNSDCVLLCLSISRLFLHGLLFLSAIQLTHFQKLSEPLNHSYQAIIMLWMIANQANLWLAACLSLLYCSKLIRFSHTFLICLASWVSRKISQMLLGIILCSCICTVLCVWCFFSRPHFTVTTVLFMNNNTRLNWQIKDLNLFYSFLFCYLWSVPPFLLFLVSSGMLTVSLGRHMRTMKVYTRNSRDPSLEAHIKALKSLVSFFCFFVISSCAAFISVPLLILWRDKIGVMVCVGIMAACPSGHAAILISGNAKLRRAVMTILLWAQSSLKVRADHKADSRTLC |  | increase | 2.63 |
| TAS2R45: original human bitterness receptor TAS2R45 (protein, listed as Homo sapiens) MITFLPIIFSILVVVTFVIGNFANGFIALVNSTEWVKRQKISFADQIVTALAVSRVGLLWVLLLNWYSTVLNPAFYSVELRTTAYNIWAVTGHFSNWPATSLSIFYLLKIANFSNLIFLRLKRRVKSVILVVLLGPLLFLACHLFVVNMNQIVWTKEYEGNMTWKIKLRRAMYLSDTTVTMLANLVPFTVTLISFLLLVCSLCKHLKKMQLHGKGSQDPSTKVHIKVLQTVISFFLLRAIYFVSVIISVWSFKNLENKPVFMFCQAIGFSCSSAHPFILIWGNKKLKQTYLSVLWQMRY |  | increase | 0.17 |
| TAS2R8: original human bitterness receptor TAS2R8 (protein, listed as Homo sapiens) MFSPADNIFIILITGEFILGILGNGYIALVNWIDWIKKKKISTVDYILTNLVIARICLISVMVVNGIVIVLNPDVYTKNKQQIVIFTFWTFANYLNMWITTCLNVFYFLKIASSSHPLFLWLKWKIDMVVHWILLGCFAISLLVSLIAAIVLSCDYRFHAIAKHKRNITEMFHVSKIPYFEPLTLFNLFAIVPFIVSLISFFLLVRSLWRHTKQIKLYATGSRDPSTEVHVRAIKTMTSFIFFFFLYYISSILMTFSYLMTKYKLAVEFGEIAAILYPLGHSLILIVLNNKLRQTFVRMLTCRKIACMI |  | increase | 28.58 |
